# Source: PubChem BioAssay AID2685 (National Center for Advancing Translational Sciences (NCATS), 2010)
# The other results are listed elsewhere or left out. These are further read-outs of the screen, such as a control signal, another cell line or another target. No call is given for them. Most of these compounds were active or inconclusive in the main read-out, so they are no random draw. The note in brackets gives the kind of curve behind each potency; many fits are weak.
# Test: qHTS Assay for Lipid Storage Modulators in Drosophila S3 Cells;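 for cell number change: cells counted by Cell Tracker Red CMTPX staining in the red channel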
# Details: BODIPY lipid droplet fluorescence, 18-24 h; for cell number change: measured here: cell count max response, cells fed with added oleic acid
# In short: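 Drosophila S3 cells loaded with oleic acid (400 uM, as added) and compounds at several concentrations; lipid droplets imaged by 488-nm laser-scanning cytometry, 500–530 nm intensity and object ratio to cell channel. Percent activity normalized to 20 uM Triacsin C.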
# [1] = measured here: cell number channel AC50, cells fed with added oleic acid
# [2] = measured here: lipid fluorescence (Fed channel) AC50, cells fed with added oleic acid
Compound,cell number change,AC50 [1],AC50 [2]
C=CCNC(=S)NNC(=O)CCC(O)CCCCC (stereo not drawn),5.21%,"0.291 µM [rising, full curve]","29.1 µM [rising, single point]"
O=C(COC(=O)c1ccc(NS(=O)(=O)c2ccc(Br)s2)cc1)NC1CCCC1,28.8%,,"16.4 µM [rising, partial curve]"
COc1ccccc1N1CCN(C2CCCN(C(=O)c3ccccn3)C2)CC1 (stereo not drawn),10.7%,,
Cc1c(Br)c(O)c(Br)c(O)c1/C=N/n1c(-c2ccccc2)n[nH]c1=S,-41.5%,"29.1 µM [falling, single point]",
CCn1c(N)c(C(=O)NC)sc1=S,-6.63%,,"29.1 µM [falling, single point]"
COc1ccc(S(=O)(=O)N2CCN(c3ccc(F)cc3)CC2)cc1OC,-11.3%,,
CCCCn1c(N)c(N(CC(C)C)C(=O)CC2CCCC2)c(=O)[nH]c1=O,2.81%,,
COc1ccc(Nc2c(-c3ccc(C)cc3)nc3cnccn23)cc1,,"0.00411 µM [rising, full curve, poor fit]","8.2 µM [rising, partial curve]"
Brc1ccc(-c2nc(N/N=C/c3cccnc3)c3ccccc3n2)cc1,-64.3%,,
O=C(CSc1nnc2c(n1)[nH]c1ccc(F)cc12)Nc1ccccc1F,269%,,
CSc1ncccc1C(=O)OCC(=O)NCc1ccccc1,-8.03%,,"0.517 µM [rising, full curve, poor fit]"
CC1=C(C(=O)OCC(C)C)C2(O)C(=O)c3ccccc3C2(O)N1 (stereo not drawn),-17.2%,"0.0731 µM [falling, full curve, poor fit]","0.517 µM [falling, full curve, poor fit]"
CCOC(=O)COc1cc(Br)c(C2NC(=O)NC(C)=C2C(C)=O)cc1OCC (stereo not drawn),17%,,"0.651 µM [falling, single point]"
COCCNC(=S)N(CCc1c(C)[nH]c2ccc(C)cc12)Cc1ccco1,23.1%,"0.411 µM [rising, full curve, poor fit]","0.184 µM [rising, full curve, poor fit]"
O=C(CN1CCN(S(=O)(=O)c2ccc(Br)cc2)CC1)Nc1ccc2c(c1)OCCO2,-8.63%,,
CCC1=NN(C(=O)c2ccc(Br)cc2)C(O)(c2ccc(C)cc2)C1 (stereo not drawn),21.3%,,
O=Cc1coc2c(ccc3ccccc32)c1=O,0.472%,,"6.51 µM [falling, single point]"
CC(/C=C/c1ccccc1)NC(N)=O (stereo not drawn),2.83%,,"0.116 µM [falling, full curve]"
Cc1ccc(CNC(=O)Cn2cccc2C(=O)c2ccccc2)cc1,-43.2%,"25.9 µM [falling, single point]",
Cc1ccc(Nc2nnns2)cc1,-10.9%,,"29.1 µM [falling, single point]"
CCCCn1c(SCc2nnc(-c3ccccc3)o2)nc2c1c(=O)n(C)c(=O)n2C,-23.3%,,"20.6 µM [falling, single point]"
O=C(CCCC(=O)N1CCc2ccccc21)N1CCc2ccccc21,30.1%,"18.4 µM [rising, single point]",

Compound,cell number change,AC50 [1],AC50 [2]
O=C(O)/C=C/c1cn(Cc2ccccc2)nc1-c1cccs1,-0.541%,,"0.0058 µM [falling, full curve, poor fit]"
O=C(NC(=S)Nc1ccccc1Cl)c1csnn1,7.35%,,"2.31 µM [rising, partial curve]"
CSc1ccc(Cl)c(C(=O)OCC(=O)N2CCN(c3ccccc3)CC2)c1,-0.107%,,
CCOC(=O)c1cnc(SC)nc1Oc1cccc(NS(=O)(=O)c2ccccc2)c1,-1.81%,,"32.6 µM [falling, single point]"
N#Cc1cnn(-c2cccc(Cl)c2)c1N,-10.3%,,
COc1cc(CN2CCCC(N3CCN(c4ccccc4C)CC3)C2)cc(Cl)c1O (stereo not drawn),11.1%,,
O=C(NNC(=O)c1cccnc1)c1ccncc1,16.7%,,
O=C(Cn1nc(Cl)nc1Cl)Nc1ccccc1,-7.3%,,
CCCCNC(=O)/C(C#N)=C/c1cccnc1,,,"29.1 µM [falling, partial curve]"
Cc1ccc(CN2C(=O)CCC2(C)C(=O)NCc2cccnc2)cc1 (stereo not drawn),23%,"4.11 µM [rising, partial curve, poor fit]",
CCC(C)c1ccccc1NC(=O)C1CCCO1 (stereo not drawn),11%,,"4.11 µM [falling, partial curve]"
O=C(NCCNC(=O)c1ccc(Br)o1)c1ccc(Br)o1,,,"29.1 µM [falling, single point]"
Cc1ccc(NC(=O)c2ccc3ccccc3n2)nc1,138%,"9.2 µM [rising, partial curve]","13 µM [rising, partial curve]"
CC(=O)c1c(C)oc2ccc(NS(=O)(=O)c3ccc(C)cc3)cc12,80.4%,"20.6 µM [rising, partial curve]",
CCOC(=O)c1sc2ncn(CC(=O)N(CC)CC)c(=O)c2c1C,,,"29.1 µM [falling, single point]"
Cc1ccc(C)n1CCN1CCN(CC(=O)Nc2ccc(S(N)(=O)=O)cc2)CC1,18.4%,,
Cn1c(SCc2ccc(F)cc2)nnc1-c1ccncc1,,"6.51 µM [rising, single point]",
Cc1cc(C)cc(N=C2SC(CC(=O)Nc3ccccc3)C(=O)N2CCN2CCOCC2)c1 (stereo not drawn),29.9%,,
Cc1csc(NC(=O)CSc2nc3ccccc3s2)n1,-13.9%,,"32.6 µM [falling, single point]"
Cc1ccc([N+](=O)[O-])cc1S(=O)(=O)n1ccnc1C,-33.5%,"8.2 µM [falling, partial curve, poor fit]","10.3 µM [falling, partial curve]"
CC(C)COCC1CC2(CC(C)C(=O)CC2=O)C(=O)O1 (stereo not drawn),1.97%,,"8.2 µM [rising, partial curve, poor fit]"
N#CCCN1CCC(NC(=O)OCc2ccccc2)CCC1=O (stereo not drawn),-1.2%,,

Compound,cell number change,AC50 [1],AC50 [2]
Cc1ccc(/C=N/NC(=O)Nc2ccccc2)o1,16.1%,,"32.6 µM [rising, single point]"
Nc1nc(SCC(=O)Nc2ccc(F)cc2)[nH]c(=O)c1NC(=O)c1ccc(F)c(F)c1,36.8%,"5.8 µM [rising, full curve]",
COc1cc(CNC(=O)C2CCCC2)cc(OC)c1OC,,,"0.651 µM [rising, single point]"
COCCCN1CN(S(=O)(=O)c2ccc(Cl)cc2)c2nc3ccccc3nc21,,"4.11 µM [rising, partial curve]","0.731 µM [rising, full curve]"
N#C/C(=C/c1ccc(N2CCCCC2)o1)C(=O)Nc1ccc2ccccc2c1,-97.5%,"5.17 µM [falling, full curve]","0.517 µM [falling, full curve]"
CCCn1nnnc1NCc1ccc(C(C)C)cc1,-6.87%,,
CCCCCCNC(=O)CSc1nccn1Cc1ccccc1,110%,"14.6 µM [rising, partial curve]","16.4 µM [rising, partial curve]"
Nc1cc(N)nc(SCC(=O)N2CCc3ccccc32)n1,,"2.59 µM [rising, partial curve]",
COc1ccc(CCNC(=O)CC2SC(=Nc3cc(C)cc(C)c3)NC2=O)cc1OC (stereo not drawn),22.7%,,"11.6 µM [rising, partial curve]"
O=C(Nc1ccccc1)c1ccccc1Oc1ccc(C(F)(F)F)cc1[N+](=O)[O-],98.7%,"4.11 µM [rising, full curve]","7.31 µM [rising, partial curve]"
O=C1CCCC(O)=C1N=Nc1c(Cl)cc(C(F)(F)F)cc1Cl,-27.1%,,"16.4 µM [falling, single point]"
COc1cc(C)nc(NS(=O)(=O)c2ccc(C)cc2)n1,-17.5%,,
CSCCC(NS(=O)(=O)c1cccc(C(F)(F)F)c1)C(=O)N(C)CCOc1ccc(Cl)cc1 (stereo not drawn),22%,,"29.1 µM [rising, single point]"
CC(=O)c1c(C)[nH]c(C(=O)Nc2cc(C)ccc2C)c1C,-8.97%,,"0.00517 µM [rising, full curve, poor fit]"
CCOc1cc(/C=C2\SC(=NC)N(C)C2=O)c(Br)cc1OC(C)=O,-26.9%,,"20.6 µM [falling, single point]"
O=C(O)C1CC=CCC1C(=O)Nc1ccc(Oc2ccc(Cl)cc2)cc1 (stereo not drawn),7.3%,"2.91 µM [rising, partial curve]","3.66 µM [rising, single point]"
N/C(=N\c1nc(CSc2nnnn2-c2ccccc2)cc(=O)[nH]1)Nc1ccccc1,17.1%,,
CCCn1c(SCC(=O)NNC(=O)c2ccc(C)cc2)nnc1C(C)C,7.69%,,"29.1 µM [falling, single point]"
Cc1ccccc1N1C(=O)c2cccc3c(N(C)CCO)ccc(c23)C1=O,-54.5%,"25.9 µM [falling, partial curve, poor fit]",
Cc1cccc(OC(=O)Cn2c(C(F)(F)F)nc3ccccc32)c1,1.12%,"0.58 µM [falling, single point]",
COC(=O)c1ccc(N2CCc3ccccc32)c([N+](=O)[O-])c1,-67%,"29.1 µM [falling, single point]","29.1 µM [falling, single point]"
OC(CN1CCC(Cc2ccccc2)CC1)c1ccccc1 (stereo not drawn),,"6.51 µM [falling, single point]","6.51 µM [falling, single point]"

# In a second layout: 3 of the compounds above
Compound | cell number change | AC50 [1] | AC50 [2]
CCCCCCNC(=O)CSc1nccn1Cc1ccccc1 | 110% | 14.6 µM [rising, partial curve] | 16.4 µM [rising, partial curve]
CSCCC(NS(=O)(=O)c1cccc(C(F)(F)F)c1)C(=O)N(C)CCOc1ccc(Cl)cc1 (stereo not drawn) | 22% |  | 29.1 µM [rising, single point]
OC(CN1CCC(Cc2ccccc2)CC1)c1ccccc1 (stereo not drawn) |  | 6.51 µM [falling, single point] | 6.51 µM [falling, single point]
